Earlier results, collected in patent US12128011B2, “Therapeutically administrable high dose non-aqueous curcuminoid solutions” (priority 2019, dated 2024).

Details: Chen, Propylene glycol based solution

Solubility of curcumin: approximately 1.5 mg/ml
Structure (SMILES): COc1cc(/C=C/C(=O)CC(=O)/C=C/c2ccc(O)c(OC)c2)ccc1O [curcumin]
